Primary screen of a compound library

Values are the deposited “Percent Effect”, in %.
The controls that fix the scale are not given in the record; negative values are as filed.
This is an unselected part of the compounds tested.
Two or more numbers in one place are separate tests of the same structure; such repeats can differ widely.

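Viability assay of Plasmodium falciparum sporozoites; the read-out is not stated. The concentration is filed as 10 mM, unlikely as a test dose, so the dose is not known. Higher reads as lower viability (inferred: compounds with an IC50 in retests scored well above the rest). Strong results were mostly tested again. Of about 34,000 compounds tested this way, about 280 (0.84%) reached 50% or more in at least one test.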

SMILES	Percent Effect
Cc1nc2cc(C(=O)N3CCCC(n4ccnc4)C3)ccc2n1C (centres undefined)	5.352%
CCn1c(CN(C)C)nnc1C1CCN(Cc2cnc(C)nc2)CC1	3.596%
CC(C)n1nc2c(cc1=O)CN(c1nc3ccccc3s1)CC2	66.67% & 52.43% & 41.91%
Cn1ccnc1CNC(=O)N(CCCO)C1CCc2ccccc21 (centres undefined)	-21.32%
CC(C)c1nccn1CCCNC(=O)c1ccc(-c2cnn(C)c2)nc1	-5.089%
CCN(CC)CC(=O)NCc1cccnc1-n1cnc2ccccc21	-14%
OC(COc1ccccc1)CN1CCC(c2ccn[nH]2)CC1 (centres undefined)	5.181%
CCOCC1CN(S(=O)(=O)c2ccccc2)Cc2nccn2C1 (centres undefined)	7.257%
O=C1c2cc(Br)cc(Br)c2OCC1(CN1CCCC1)CN1CCCC1	-3.349%
CN(C)C1(CNC(=O)C2CCCN2Cc2ccc(F)cc2)CCOCC1 (centres undefined)	-4.114%
CC(C)CN1CCC2(COCc3cnc(-c4ccccc4)nc32)C1.O=C(O)C(F)(F)F (centres undefined)	-0.5673%
CC(C)(C)c1ncc(C(=O)NCCNc2ncccn2)s1	5.836%
O=C(O)C(F)(F)F.[H][C@@]12CCN(c3nncs3)C[C@@]1([H])O[C@@H](C(=O)NCCOC)C2	-22.77%
Cc1c(C(=O)N2CCC2(C)C)nnn1-c1cccc2cccnc12	-12.18%
CCOc1ccnc(N2CCN(C(=O)c3c(CC)noc3C)CC2)n1	-6.802%
CCn1nc(CC(C)C)cc1C(=O)N1CCC(n2cnnc2)CC1	20.47%
Cc1cnn(CC2CCCN2C(=O)c2cc3ccccc3c(=O)[nH]2)c1 (centres undefined)	2.755%
O=C(CC1CC1)N1Cc2nccn2CC(Cn2ncccc2=O)C1 (centres undefined)	1.18%
CCn1ccnc1CN1CCCN(C(=O)c2cnc(C)cn2)CC1	-2.633%
Cc1ncncc1C(=O)N1CCCC1c1c(C)nn(C)c1Cl (centres undefined)	-13.78%
c1cnc(N2CCCC(c3n[nH]c4ncccc34)C2)nc1 (centres undefined)	-5.021%
CNC(=O)CN1CCOCC2(CCCN(Cc3ccsc3)C2)C1.O=C(O)C(F)(F)F.O=C(O)C(F)(F)F (centres undefined)	0.9025%
O=C(O)C(F)(F)F.[H][C@@]12CNC(=O)[C@@H](C)[C@]1([H])CN(Cc1ccsc1)C2	6.648%
O=C(c1ncncc1Cl)N1CCC2(CCCC2)CC1	-17.02%
COc1ccc(CS(=O)(=O)CC(=O)NCc2ccccc2F)cc1F	-7.554%
Cc1nc(C)c(C(=O)N2CCc3nc4c(C)csc4c(=O)n3CC2)s1.Cl	19.25%
CC1CN(CC(=O)NC(=O)NCc2cccs2)CCN1CC(F)(F)F (centres undefined)	-5.282%
COc1nc(C)ccc1CNc1cc(N2CCCC2CO)ncn1 (centres undefined)	10.99%
Cc1ccc(CN2CCc3nc(C(C)C)nc(O)c3CC2)s1	-1.023%
NC(=O)CN1CCC(NC(=O)c2ccn(-c3cccc(F)c3)n2)CC1	-9.183%
Cc1cc2n(n1)CC(CNCc1ccc(-n3cccn3)cc1)CN2 (centres undefined)	1.291%
Cc1nc2c(c(=O)n1C)CCN(Cc1cc3cc[nH]c3cn1)CC2	-4.353%
c1cc(-c2nc(CN3CCn4c(nnc4C4CC4)C3)cs2)cs1	10.31%
COc1ncc(NCc2csc(-c3ccco3)n2)cc1C(N)=O	-13.49%
Cc1cccc2[nH]c(C3CCN(C(=O)c4ccnn4C)CC3)nc12	-3.49%
OC1CCN(c2ccccc2NCc2nc(-c3cccs3)no2)CC1	22.91% & 47.25% & 30.27%
Cc1nn(C)c(C)c1CN(C)S(=O)(=O)c1c(C)n[nH]c1C	-16.1%
C1CC1c1nsc(N2CCN(C3CC3)CC2)n1	-10.51% & -44.01% & -49.58%
CN(C)c1nc(NCCc2ccccn2)ncc1F	-29.29% & -33.56%
CCS(=O)(=O)c1ccc(N2CCC(NC(=O)c3cnn(C)c3)CC2)cc1	0.4292%
Cc1ccccc1CSCCn1nc2ccccn2c1=O	-10.87%
OCC(O)CSCc1ccc(Cl)cc1Cl (centres undefined)	-12.08%
Cc1nc(Nc2cnccn2)cc(C2CN(C(C)C)C2)n1.O=CO	7.115%
O=C(O)C(F)(F)F.[H][C@@]12CCN(c3ccncn3)C[C@@]1([H])[C@H](C(=O)NCc1ccco1)CCO2	9.416%
CCOCC(=O)N1C[C@@H](O)[C@H](N(C)Cc2ccc(OC)cc2)C1	-6.517%
COC1CCN(C(=O)C2CCCC2)CC(=O)N(C)c2ccccc21 (centres undefined)	-34.06%
Cc1ccc(NC2CCN(C(=O)CCc3cscn3)CC2)nn1	11.31%
COCCn1c2c(ccc1=O)CC(NCc1cnn(C)c1)CC2 (centres undefined)	0.6751%
Cc1nc(O)cc(CN2CC=C(c3cnn(C(C)(C)C)c3)CC2)n1	-34.41% & -32.55%
O=C(NCC1CCS(=O)(=O)C1)c1sccc1-c1ccc(F)cc1 (centres undefined)	6.92%
CCN1C(=O)CC[C@]12CC[C@@H](NC(=O)c1cnccn1)CC2	17.95%
Cc1ccc(C(=O)N2CCCCC2c2[nH]ncc2S(C)(=O)=O)s1 (centres undefined)	9.54%
CN1CCN(S(=O)(=O)c2cccnc2)c2cnccc21	-4.444% & -15.08%
Cc1ccc2cc(C(=O)NCCn3nc4ccccn4c3=O)[nH]c2c1	9.662%
CCc1cnc(CN2CCCC2c2noc(C3CC3)n2)o1 (centres undefined)	6.56%
COc1ccc(C(=O)N(C)Cc2nnc3ccccn23)c(OC)c1	-3.699%
Cc1cccc(OCC(O)CN2CCC(Cn3cccn3)CC2)c1 (centres undefined)	4.929%
Cc1nc(CN2CCCC(Nc3ncnc4c3CCC4)C2)no1 (centres undefined)	-13.9%
CCN(Cc1cnn(C)c1)C(=O)c1cc2ccccc2c(=O)[nH]1	-7.086%
CN1C(=O)C(c2ccccc2)CC12CCN(CCO)CC2.O=C(O)C(F)(F)F (centres undefined)	9.444%
CCS(=O)(=O)N1CCC2(CC(=O)N(c3cccc(C)c3)C2)C1 (centres undefined)	-3.139%
Cc1nc(CN2CCCC(NCc3ccc4ccccc4c3)C2)no1 (centres undefined)	-6.441%

The first 5 entries again:

{"smiles": "Cc1nc2cc(C(=O)N3CCCC(n4ccnc4)C3)ccc2n1C", "stereo": "centres undefined", "Percent Effect": 5.352}
{"smiles": "CCn1c(CN(C)C)nnc1C1CCN(Cc2cnc(C)nc2)CC1", "Percent Effect": 3.596}
{"smiles": "CC(C)n1nc2c(cc1=O)CN(c1nc3ccccc3s1)CC2", "Percent Effect": "66.67 & 52.43 & 41.91"}
{"smiles": "Cn1ccnc1CNC(=O)N(CCCO)C1CCc2ccccc21", "stereo": "centres undefined", "Percent Effect": -21.32}
{"smiles": "CC(C)c1nccn1CCCNC(=O)c1ccc(-c2cnn(C)c2)nc1", "Percent Effect": -5.089}

The values are deposited in ChEMBL (CHEMBL3988442, “University of Dundee, Small-Polar-MMV Screening Library” (2021)).